From patent publication US7704994B2, “Benzazepine derivatives for the treatment of neurological disorders” (Glaxo Group Limited, priority 2002, dated 2010)
Some results were stated once for a whole list of compounds, not compound by compound. Some ranges recur; such a range may be that of the whole group of compounds.

Sequences of proteins named here, by UniProt entry; tags and fusion partners are left off. A change or cut given only in a name is not applied to a line headed by its entry.
UniProt Q9Y5N1: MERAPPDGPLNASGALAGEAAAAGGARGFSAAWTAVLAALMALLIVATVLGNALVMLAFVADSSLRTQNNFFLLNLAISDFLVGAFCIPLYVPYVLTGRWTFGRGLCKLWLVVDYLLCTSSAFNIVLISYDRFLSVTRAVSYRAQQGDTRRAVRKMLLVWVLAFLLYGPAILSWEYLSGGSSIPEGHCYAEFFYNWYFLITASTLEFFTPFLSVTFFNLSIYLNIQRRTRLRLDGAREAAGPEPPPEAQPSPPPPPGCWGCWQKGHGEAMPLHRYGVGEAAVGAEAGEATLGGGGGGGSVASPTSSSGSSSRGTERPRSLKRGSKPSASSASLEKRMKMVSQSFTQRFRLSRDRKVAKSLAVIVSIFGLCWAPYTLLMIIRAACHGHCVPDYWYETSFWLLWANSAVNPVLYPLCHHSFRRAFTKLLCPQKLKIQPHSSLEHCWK

Target: T1, human histamine H3 receptor (Homo sapiens, UniProt Q9Y5N1)
T1 construct: expressed in transfected cells; host or cells: CHO K1 cells carrying pSwitch, transfected with pGeneH3 and induced with mifepristone; membranes of clone 3H3
Test: Histamine H3 functional antagonist assay
Format: biochemical
Conditions: membranes of CHO K1 cells expressing human histamine H3; [35S]GTPγS SPA; histamine 0.3 μM
Method: A membrane preparation containing histamine H3 receptors may be prepared in accordance with the following procedures:
Ligated DNA was transformed into competent DH5α E. coli host bacterial cells and plated onto Luria Broth (LB) agar containing Zeocin™ (an antibiotic which allows the selection of cells expressing the sh ble gene which is present on pGene and pSwitch) at 50 μg ml^−1. Colonies containing the re-ligated plasmid were identified by restriction analysis. DNA for transfection into mammalian cells was prepared from 250 ml cultures of the host bacterium containing the pGeneH3 plasmid and isolated using a DNA preparation kit (Qiagen Midi-Prep) as per manufacturers guidelines (Qiagen).
CHO K1 cells previously transfected with the pSwitch regulatory plasmid (InVitrogen) were seeded at 2×10e6 cells per T75 flask in Complete Medium, containing Hams F12 (GIBCOBRL, Life Technologies) medium supplemented with 10% v/v dialysed foetal bovine serum, L-glutamine, and hygromycin (100 μg ml^−1), 24 hours prior to use. Plasmid DNA was transfected into the cells using Lipofectamine plus according to the manufacturers guidelines (InVitrogen). 48 hours post transfection cells were placed into complete medium supplemented with 500 μg ml^−1 Zeocin™.
10-14 days post selection 10 nM Mifepristone (InVitrogen), was added to the culture medium to induce the expression of the receptor. […] Approximately 1×10e7 cells were examined for receptor expression by staining with a rabbit polyclonal antibody, 4a, raised against the N-terminal domain of the histamine H3 receptor, incubated on ice for 60 minutes, followed by two washes in sorting medium. […] Following two further washes with Sorting Medium, cells were filtered through a 50 μm Filcon™ (BD Biosciences) and then analysed on a FACS Vantage SE Flow Cytometer fitted with an Automatic Cell Deposition Unit. […] Positively stained cells were sorted as single cells into 96-well plates, containing Complete Medium containing 500 μg ml^−1 Zeocin™ and allowed to expand before reanalysis for receptor expression via antibody and ligand binding studies.
All steps of the protocol are carried out at 4° C. and with pre-cooled reagents. […] The cells are then homogenised by 2×15 second bursts in a 1 litre glass Waring blender, followed by centrifugation at 500 g for 20 minutes. The supernatant is then spun at 48,000 g for 30 minutes. The pellet is resuspended in 4 volumes of buffer A2 by vortexing for 5 seconds, followed by homogenisation in a Dounce homogeniser (10-15 strokes). At this point the preparation is aliquoted into polypropylene tubes and stored at −70° C.
(II) Histamine H3 Functional Antagonist Assay
The plate is then incubated on a shaker at room temperature for 30 minutes followed by centrifugation for 5 minutes at 1500 rpm. The plate is read between 3 and 6 hours after completion of centrifuge run in a Wallac Microbeta counter on a 1 minute normalised tritium count protocol. Data is analysed using a 4-parameter logistic equation. Basal activity used as minimum i.e. histamine not added to well.

Q: For `Cl.O=C(Nc1ccc(F)cc1)N1CCC(Oc2ccc3c(c2)CCN(C2CCC2)CC3)CC1` [Example 67, 4-(3-Cyclobutyl-2,3,4,5-tetrahydro-1H-benzo[d]azepin-7-yloxy)-piperidine-1-carboxylic acid (4-fluoro-phenyl)-amide], which “antagonism (pKb)” value is on record?
A: 6.5-10.5 pKb

Q: How did the “antagonism (pKb)” value turn out when `CN(C)C(=O)COc1ccc2c(c1)CCN(C1CCC1)CC2` [Example 68, 2-(3-Cyclobutyl-2,3,4,5-tetrahydro-1H-benzo[d]azepin-7-yloxy)-N,N-dimethyl-acetamide] was run?
A: 6.5-10.5 pKb

Q: With `O=C(COc1ccc2c(c1)CCN(C1CCC1)CC2)Nc1ccccc1` [Example 69, 2-(3-Cyclobutyl-2,3,4,5-tetrahydro-1H-benzo[d]azepin-7-yloxy)-N-phenyl-acetamide] as the compound, how does the “antagonism (pKb)” value read?
A: 6.5-10.5 pKb

Q: `O=C(COc1ccc2c(c1)CCN(C1CCC1)CC2)N1CCCC1` [Example 70, 2-(3-Cyclobutyl-2,3,4,5-tetrahydro-1H-benzo[d]azepin-7-yloxy)-1-pyrrolidin-1-yl-ethanone] was tested. Which “antagonism (pKb)” value did it give?
A: 6.5-10.5 pKb

Q: How did the “antagonism (pKb)” value turn out when `O=C(COc1ccc2c(c1)CCN(C1CCC1)CC2)N1CCOCC1` [Example 71, 2-(3-Cyclobutyl-2,3,4,5-tetrahydro-1H-benzo[d]azepin-7-yloxy)-1-morpholin-4-yl-ethanone] was run?
A: 6.5-10.5 pKb

Q: With `N#Cc1ccc(S(=O)(=O)N2CCC(Oc3ccc4c(c3)CCN(C3CCC3)CC4)CC2)cc1` [Example 73, 4-[4-(3-Cyclobutyl-2,3,4,5-tetrahydro-1H-benzo[d]azepin-7-yloxy)-piperidine-1-sulfonyl]-benzonitrile] as the compound, how does the “antagonism (pKb)” value read?
A: 6.5-10.5 pKb

Q: With `Cc1noc(C)c1S(=O)(=O)N1CCC(Oc2ccc3c(c2)CCN(C2CCC2)CC3)CC1` [Example 74, 3-Cyclobutyl-7-[1-(3,5-dimethyl-isoxazole-4-sulfonyl)-piperidin-4-yloxy]-2,3,4,5-tetrahydro-1H-benzo[d]azepine] as the compound, how does the “antagonism (pKb)” value read?
A: 6.5-10.5 pKb

Q: Which “antagonism (pKb)” value does the source give for `N#Cc1ccc(S(=O)(=O)N2CCC(COc3ccc4c(c3)CCN(C3CCC3)CC4)CC2)cc1` [Example 75, 4-[4-(3-Cyclobutyl-2,3,4,5-tetrahydro-1H-benzo[d]azepin-7-yloxymethyl)-piperidine-1-sulfonyl]-benzonitrile] here?
A: 6.5-10.5 pKb

Q: Which “antagonism (pKb)” value does the source give for `N#Cc1ccc(S(=O)(=O)N2CCC[C@@H]2COc2ccc3c(c2)CCN(C2CCC2)CC3)cc1` [Example 76, 4-[(R)-2-(3-Cyclobutyl-2,3,4,5-tetrahydro-1H-benzo[d]azepin-7-yloxymethyl)-pyrrolidine-1-sulfonyl]-benzonitrile] here?
A: 6.5-10.5 pKb

Q: For `N#Cc1ccc(S(=O)(=O)N2CC[C@@H](Oc3ccc4c(c3)CCN(C3CCC3)CC4)C2)cc1` [Example 77, 4-[(R)-3-(3-Cyclobutyl-2,3,4,5-tetrahydro-1H-benzo[d]azepin-7-yloxy)-pyrrolidine-1-sulfonyl]-benzonitrile], which “antagonism (pKb)” value is on record?
A: 6.5-10.5 pKb

Q: With `N#Cc1ccc(S(=O)(=O)N2CC[C@H](Oc3ccc4c(c3)CCN(C3CCC3)CC4)C2)cc1` [Example 78, 4-[(S)-3-(3-Cyclobutyl-2,3,4,5-tetrahydro-1H-benzo[d]azepin-7-yloxy)-pyrrolidine-1-sulfonyl]-benzonitrile] as the compound, how does the “antagonism (pKb)” value read?
A: 6.5-10.5 pKb

Q: For `Fc1ccc(COc2ccc3c(c2)CCN(C2CCC2)CC3)c(F)c1` [Example 79, 3-Cyclobutyl-7-(2,4-difluoro-benzyloxy)-2,3,4,5-tetrahydro-1H-benzo[d]azepine], which “antagonism (pKb)” value is on record?
A: 6.5-10.5 pKb

Q: With `N#Cc1cccc(COc2ccc3c(c2)CCN(C2CCC2)CC3)c1` [Example 80, 3-(3-Cyclobutyl-2,3,4,5-tetrahydro-1H-benzo[d]azepin-7-yloxymethyl)-benzonitrile] as the compound, how does the “antagonism (pKb)” value read?
A: 6.5-10.5 pKb

Q: With `COc1cccc(COc2ccc3c(c2)CCN(C2CCC2)CC3)c1` [Example 81, 3-Cyclobutyl-7-(3-methoxy-benzyloxy)-2,3,4,5-tetrahydro-1H-benzo[d]azepine] as the compound, how does the “antagonism (pKb)” value read?
A: 6.5-10.5 pKb

Q: How did the “antagonism (pKb)” value turn out when `N#Cc1ccccc1COc1ccc2c(c1)CCN(C1CCC1)CC2` [Example 85, 2-(3-Cyclobutyl-2,3,4,5-tetrahydro-1H-benzo[d]azepin-7-yloxymethyl)-benzonitrile] was run?
A: 6.5-10.5 pKb

Q: How did the “antagonism (pKb)” value turn out when `N#Cc1ccc(COc2ccc3c(c2)CCN(C2CCC2)CC3)cc1` [Example 86, 4-(3-Cyclobutyl-2,3,4,5-tetrahydro-1H-benzo[d]azepin-7-yloxymethyl)-benzonitrile] was run?
A: 6.5-10.5 pKb

Q: With `COC(=O)c1ccc(COc2ccc3c(c2)CCN(C2CCCC2)CC3)cc1` [Example 88, 4-(3-Cyclopentyl-2,3,4,5-tetrahydro-1H-benzo[d]azepin-7-yloxymethyl)-benzoic acid methyl ester] as the compound, how does the “antagonism (pKb)” value read?
A: 6.5-10.5 pKb

Q: `O=C(O)c1ccc(COc2ccc3c(c2)CCN(C2CCCC2)CC3)cc1` [Example 89, 4-(3-Cyclopentyl-2,3,4,5-tetrahydro-1H-benzo[d]azepin-7-yloxymethyl)-benzoic acid] was tested. Which “antagonism (pKb)” value did it give?
A: 6.5-10.5 pKb

Q: `O=C(c1ccc(COc2ccc3c(c2)CCN(C2CCCC2)CC3)cc1)N1CCCC1` [Example 90, 1-[4-(3-Cyclopentyl-2,3,4,5-tetrahydro-1H-benzo[d]azepin-7-yloxymethyl)-phenyl]-1-pyrrolidin-yl-methanone] was tested. Which “antagonism (pKb)” value did it give?
A: 6.5-10.5 pKb

Q: With `O=C(c1ccc(COc2ccc3c(c2)CCN(C2CCCC2)CC3)cc1)N1CCOCC1` [Example 91, 1-[4-(3-Cyclopentyl-2,3,4,5-tetrahydro-1H-benzo[d]azepin-7-yloxymethyl)-phenyl]-1-morpholin-4-yl-methanone] as the compound, how does the “antagonism (pKb)” value read?
A: 6.5-10.5 pKb

Q: With `O=C(c1ccc(COc2ccc3c(c2)CCN(C2CCCC2)CC3)cc1)N1CCN(c2ccncc2)CC1` [Example 92, 1-[4-(3-Cyclopentyl-2,3,4,5-tetrahydro-1H-benzo[d]azepin-7-yloxymethyl)-phenyl]-1-(4-pyridin-4-yl-piperazin-1-yl)-methanone] as the compound, how does the “antagonism (pKb)” value read?
A: 6.5-10.5 pKb

Q: Which “antagonism (pKb)” value does the source give for `O=C(c1ccc(COc2ccc3c(c2)CCN(C2CCCC2)CC3)cc1)N1CCN(c2ccc(F)cc2)CC1` [Example 93, 1-[4-(3-Cyclopentyl-2,3,4,5-tetrahydro-1H-benzo[d]azepin-7-yloxymethyl)-phenyl]-1-[4-(4-fluoro-phenyl)-piperazin-1-yl]-methanone] here?
A: 6.5-10.5 pKb

Q: Which “antagonism (pKb)” value does the source give for `COC(=O)c1cccc(COc2ccc3c(c2)CCN(C2CCCC2)CC3)c1` [Example 94, 3-(3-Cyclopentyl-2,3,4,5-tetrahydro-1H-benzo[d]azepin-7-yloxymethyl)-benzoic acid methyl ester] here?
A: 6.5-10.5 pKb

Q: For `O=C(O)c1cccc(COc2ccc3c(c2)CCN(C2CCCC2)CC3)c1` [Example 95, 3-(3-Cyclopentyl-2,3,4,5-tetrahydro-1H-benzo[d]azepin-7-yloxymethyl)-benzoic acid], which “antagonism (pKb)” value is on record?
A: 6.5-10.5 pKb

Q: With `O=C(c1cccc(COc2ccc3c(c2)CCN(C2CCCC2)CC3)c1)N1CCCC1` [Example 96, 1-[3-(3-Cyclopentyl-2,3,4,5-tetrahydro-1H-benzo[d]azepin-7-yloxymethyl)-phenyl]-1-pyrrolidin-yl-methanone] as the compound, how does the “antagonism (pKb)” value read?
A: 6.5-10.5 pKb

Q: With `O=C(c1cccc(COc2ccc3c(c2)CCN(C2CCCC2)CC3)c1)N1CCOCC1` [Example 97, 1-[3-(3-Cyclopentyl-2,3,4,5-tetrahydro-1H-benzo[d]azepin-7-yloxymethyl)-phenyl]-1-morpholin-4-yl-methanone] as the compound, how does the “antagonism (pKb)” value read?
A: 6.5-10.5 pKb

Q: For `O=C(c1cccc(COc2ccc3c(c2)CCN(C2CCCC2)CC3)c1)N1CCN(c2ccncc2)CC1` [Example 98, 1-[3-(3-Cyclopentyl-2,3,4,5-tetrahydro-1H-benzo[d]azepin-7-yloxymethyl)-phenyl]-1-(4-pyridin-4-yl-piperazin-1-yl)-methanone], which “antagonism (pKb)” value is on record?
A: 6.5-10.5 pKb

Q: `O=C(c1cccc(COc2ccc3c(c2)CCN(C2CCCC2)CC3)c1)N1CCN(c2ccc(F)cc2)CC1` [Example 99, 1-[3-(3-Cyclopentyl-2,3,4,5-tetrahydro-1H-benzo[d]azepin-7-yloxymethyl)-phenyl]-1-[4-(4-fluoro-phenyl)-piperazin-1-yl]-methanone] was tested. Which “antagonism (pKb)” value did it give?
A: 6.5-10.5 pKb

Q: Which “antagonism (pKb)” value does the source give for `N#Cc1ccc(Oc2ccc3c(c2)CCN(C2CCC2)CC3)nc1` [Example 100, 6-(3-Cyclobutyl-2,3,4,5-tetrahydro-1H-benzo[d]azepin-7-yloxy)-nicotinonitrile] here?
A: 6.5-10.5 pKb
